Test results published in US5770693A, “Calpain-inhibiting peptide analogs of the kininogen heavy chain” (Temple University-Of The Commonwealth System of Higher …, priority 1995, dated 1998).
At least one peptide structure holds a part that was inferred or is arguable (an end, a ring closure or a residue). Positions of bridges follow the written chain, without caps; N, C: chain ends. Residues, ends and D or L forms follow the SMILES beside them.

Test system: calpain
Assay: calpain inhibition, fluorogenic substrate succinyl-Leu-Tyr-amino-4-methylcumarin
Assay type: biochemical

How did the IC50 (calculated from FIG. 1, 25° C., pH 7.5, 5mM CaCl2, 1mM substrate, read-out: IC50, concentration of inhibitory peptide that produced 50% inhibition of calpain activity) turn out when `CC[C@H](C)[C@@H]1NC(=O)[C@H](CCCNC(=N)N)NC(=O)[C@H](CC(C)C)NC(=O)[C@H](CCC(N)=O)NC(=O)[C@H]([C@@H](C)CC)NC(=O)[C@H](CC(=O)O)NC(=O)[C@H]([C@@H](C)CC)NC(=O)[C@H](Cc2ccc(O)cc2)NC(=O)[C@H](C)NC(=O)[C@H](CC(N)=O)NC(=O)[C@H](CC(=O)O)NC(=O)[C@H]([C@@H](C)O)NC(=O)[C@@H](N)CSSC[C@@H](C(=O)O)NC(=O)[C@H](CC(N)=O)NC(=O)[C@H](CCC(N)=O)NC(=O)[C@H](CO)NC(=O)[C@H](Cc2ccccc2)NC(=O)[C@H](CO)NC(=O)[C@H](C)NC1=O` [Example 1 peptide] (H-CTDNAYIDIQLRIASFSQNC-OH; disulfide 1-20) was run?
Its IC50 is 26 µM.

What about the “inhibition of calpain activity (in words)” value (peptide crosslinked at cysteine residues 211 and 230) of the same compound?
Its value is “inhibits the activity of calpain”.
